Results reported in PubChem BioAssay AID1671190 (National Center for Advancing Translational Sciences (NCATS), 2021).
“And” between values parts separate entries of the source, which are not always exact repeats. Equal values may be shown once. Among all 580,000 compounds or so, about 6,100 (1.1%) were called active. Inconclusive results, whose numbers are uncertain, are shown with a selection of clear calls. Calls come from the whole dose curve; as a rule, active = well fitted inhibition curve with a large enough effect; inconclusive = small, poorly fitted or top-dose-only effect, or another doubt; inactive = no such curve, though single readings can be large or run the other way. A potency beside an inconclusive call is a rough fit, not a confirmed value.

Chains of the proteins cited; added tags and fusions are not shown. Lines headed by an entry give the natural chain unless they say otherwise; changes in a name come on top.
UniProt P18054: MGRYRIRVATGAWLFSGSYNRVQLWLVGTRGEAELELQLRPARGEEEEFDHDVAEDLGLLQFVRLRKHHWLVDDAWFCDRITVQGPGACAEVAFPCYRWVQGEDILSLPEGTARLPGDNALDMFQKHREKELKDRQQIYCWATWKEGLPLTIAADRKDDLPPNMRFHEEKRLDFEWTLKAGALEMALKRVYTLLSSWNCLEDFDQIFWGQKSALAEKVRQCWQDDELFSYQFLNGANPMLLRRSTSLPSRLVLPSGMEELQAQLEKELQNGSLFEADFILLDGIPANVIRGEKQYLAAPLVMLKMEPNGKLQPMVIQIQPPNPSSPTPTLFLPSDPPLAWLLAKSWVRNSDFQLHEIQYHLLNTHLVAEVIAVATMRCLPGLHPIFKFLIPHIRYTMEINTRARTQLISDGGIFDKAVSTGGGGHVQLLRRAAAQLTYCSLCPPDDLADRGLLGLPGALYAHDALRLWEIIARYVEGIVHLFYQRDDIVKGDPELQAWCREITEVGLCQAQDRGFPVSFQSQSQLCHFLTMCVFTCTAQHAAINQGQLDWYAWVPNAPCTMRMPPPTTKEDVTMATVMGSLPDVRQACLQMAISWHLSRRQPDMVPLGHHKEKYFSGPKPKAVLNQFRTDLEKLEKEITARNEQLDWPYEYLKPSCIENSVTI

What follows are molecules tested against Polyunsaturated fatty acid lipoxygenase ALOX12 (Homo sapiens) (UniProt P18054) (assay: Primary qHTS assay for inhibitors of human arachidonate 12S-lipoxygenase (ALOX12): Round 2). Details: purified 12hLO, xylenol orange hydroperoxide absorbance; activity change, negative = inhibition: at 108 µM (top of the series) unless noted.
Outline: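 Purified human 12hLO (150 nM final) in 25 mM Hepes, 0.01% Triton X-100, pH 7.0 was preincubated 15 min at room temperature with compound. Then 40 uM arachidonic acid was added, 30 min. Hydroperoxide was read by Fe-XO absorbance ratio 573/405 nm.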
% is set by controls: 0 for no effect and ±100 for the full control effect; potency is the fitted concentration of half-maximal effect.

Question: `Cc1cc(=O)oc2c3c(cc(OCC(=O)NC(C)C)c12)OC(C)(C)CC3` was tested. Which Potency did it give?
Answer: The Potency was inconclusive: 10 µM [inhibitor, full curve].

Question: `CC1(C)CC(=O)C2=C(C1)NC(SCC(=O)Nc1ccccc1)=C(C#N)C2c1ccco1` (configuration not stated) was tested. Which Potency did it give?
Answer: The Potency was “inactive”.

Question: Which Potency does the source give for `Cc1ccc(SCC(=O)OCC(=O)NCC2CCCCC2)cc1C` here?
Answer: Its Potency is inconclusive: 50.1 µM [inhibitor, partial curve, poor fit].

Question: Which Potency does the source give for `COc1ccc(S(=O)(=O)Nc2cc(S(=O)(=O)c3ccccc3)c(O)c(C)c2C)cc1` here?
Answer: Its Potency is inconclusive: 89.1 µM [inhibitor, partial curve, poor fit].

Question: For `COc1ccc(Nc2cc3n(c(=O)n2)CCc2cc(OC)c(OC)cc2-3)c(C)c1`, which Potency is on record?
Answer: The Potency was inconclusive: 44.7 µM [inhibitor, partial curve, poor fit].

Question: How did the Potency turn out when `O=C(Nc1ccc(F)c(F)c1)c1cnc2ccccc2n1` was run?
Answer: Its Potency is inconclusive: 1.78 µM [inhibitor, full curve].

Question: For `COc1ccc(NC(=O)c2sccc2SCC#N)cc1`, which Potency is on record?
Answer: Its Potency is inconclusive: 44.7 µM [inhibitor, partial curve, poor fit].

Question: How did the Potency turn out when `CC(OC(=O)CNC(=O)c1ccc(Cl)c([N+](=O)[O-])c1)C(=O)NCc1ccco1` (configuration not stated) was run?
Answer: The Potency was inconclusive: 56.2 µM [inhibitor, partial curve, poor fit].

Question: Which Potency does the source give for `c1ccc(-c2nnn(Cc3ncc(-c4ccccc4)o3)n2)cc1` here?
Answer: The Potency was “inactive”.

Question: `C/C(=N\NC(=O)c1ccc(C)cc1)c1ccc(C)s1` was tested. Which Potency did it give?
Answer: Its Potency is “inactive”.

Question: For `COc1cc(C)c(NC(=S)Nc2ccc(C)c(Cl)c2)cc1OC`, which Potency is on record?
Answer: Its Potency is inconclusive: 50.1 µM [inhibitor, partial curve, poor fit].

Question: Which Potency does the source give for `CCCC(C)(C)C(=O)N1CCC1(C)C(=O)NS(=O)(=O)c1ccc(Cl)cc1` (configuration not stated) here?
Answer: The Potency was inconclusive: 56.2 µM [inhibitor, partial curve, poor fit].

Question: For `CN1CCN(c2ccc(NC(=S)NC(=O)/C=C/c3ccco3)cc2)CC1`, which Potency is on record?
Answer: Its Potency is inconclusive: 50.1 µM [inhibitor, partial curve, poor fit].

Question: For `CN1CCCCCC(O)c2cc(C(=O)NC3CCCCC3)ccc21` (configuration not stated), which Potency is on record?
Answer: The Potency was “inactive”.

Question: How did the Potency turn out when `Clc1ccc(OCc2nn[nH]n2)cc1` was run?
Answer: Its Potency is inconclusive: 89.1 µM [inhibitor, single point].

Question: `CCN(CC)C(=O)CN(C#N)c1nc(Cl)nc(N(C)C)n1` was tested. Which Potency did it give?
Answer: The Potency was inconclusive: 89.1 µM [inhibitor, partial curve, poor fit].

Question: How did the Potency turn out when `O=C(OCC(=O)c1ccc(Cl)s1)c1cncc(Br)c1` was run?
Answer: Its Potency is inconclusive: 79.4 µM [inhibitor, partial curve, poor fit].

Question: Which Potency does the source give for `COc1cccc(C(=O)/C=C/Nc2ccc(S(=O)(=O)Nc3cnc4ccccc4n3)cc2)c1` here?
Answer: The Potency was inconclusive: 0.562 µM [inhibitor, full curve].

Question: `CC(C)c1ccc(-n2ncc3c(=O)n(CC(=O)Nc4cc(F)ccc4Cl)cnc32)cc1` was tested. Which Potency did it give?
Answer: Its Potency is inconclusive: 28.2 µM [inhibitor, partial curve, poor fit].

Question: For `O=C(CNC(c1ccccc1)c1ccccc1)Nc1ccccc1F`, which Potency is on record?
Answer: The Potency was “inactive”.

Question: Which Potency does the source give for `C/C(=N/NS(=O)(=O)c1ccc(F)cc1)c1ccncc1` here?
Answer: Its Potency is inconclusive: 39.8 µM [inhibitor, partial curve, poor fit].

Question: Which Potency does the source give for `CCCNC(=O)N[C@@H]1C[C@H](COc2cccc(C)n2)[C@@H](O)[C@H]1O` here?
Answer: Its Potency is inconclusive: 28.2 µM [inhibitor, full curve].

Question: How did the Potency turn out when `CCOC(=O)c1ccc(N2CCCCC2)c(NS(=O)(=O)c2cccc(C(F)(F)F)c2)c1` was run?
Answer: Its Potency is inconclusive: 112 µM [inhibitor, single point].

Question: With `CC(C)(C)c1ccc(-c2nnc3sc(-c4ccc5c(c4)OCO5)nn23)cc1` as the molecule, how does the Potency read?
Answer: Its Potency is inconclusive: 50.1 µM [inhibitor, partial curve, poor fit].

Question: With `O=C(COc1ccc(F)cc1)N1CCC2(CC1)NC(=O)N(c1ccccc1Cl)N2` as the molecule, how does the Potency read?
Answer: The Potency was active: 1.41 µM.

Question: With `CCc1nc2sc(C(C)=O)c(N)c2c2c1CCCC2` as the molecule, how does the Potency read?
Answer: The Potency was inconclusive: 112 µM [inhibitor, single point].

Question: With `O=C(Nc1nnc([C@@H]2C[C@H](O)[C@@H](CO)O2)s1)c1ccc(Oc2ccccc2)cc1` as the molecule, how does the Potency read?
Answer: The Potency was inconclusive: 28.2 µM [inhibitor, single point].

Question: How did the Potency turn out when `Fc1cc2[nH]cnc2cc1Cl` was run?
Answer: The Potency was “inactive”.

Question: `COc1ccccc1CNC(=O)c1ccc2nc(CCc3ccccc3)oc2c1` was tested. Which Potency did it give?
Answer: The Potency was inconclusive: 112 µM [inhibitor, partial curve, poor fit].

Question: `Cc1cccc(CCNC(=O)c2cccc3c2C(=O)N(C2CCCCC2)C3)c1` was tested. Which Potency did it give?
Answer: Its Potency is inconclusive: 56.2 µM [inhibitor, partial curve, poor fit].

Question: For `COC(=O)c1ccc(C(=O)OC)c(NC(=O)c2ccc(-c3ccccc3)s2)c1`, which Potency is on record?
Answer: The Potency was inconclusive: 141 µM [inhibitor, partial curve, poor fit].

Question: How did the Potency turn out when `Cn1cc([C@]2(O)C(=O)Nc3ccc(OC(F)(F)F)cc32)c2ccccc21` was run?
Answer: Its Potency is “inactive”.

Question: `CC(Sc1cc(C(=O)NC2CC2)c2ccccc2n1)C(=O)N1CCOCC1` (configuration not stated) was tested. Which Potency did it give?
Answer: Its Potency is inconclusive: 2.82 µM [inhibitor, full curve, poor fit].

Question: With `COCCNc1nc(NCCOc2ccccc2)c2sc(-c3ccccc3)cc2n1` as the molecule, how does the Potency read?
Answer: Its Potency is inconclusive: 44.7 µM [inhibitor, partial curve, poor fit].

Question: For `CCCCCCN1C[C@H](n2cc(-c3ccc(F)cc3)nn2)[C@@H](O)C[C@@H]1c1ccc(OC)cc1`, which Potency is on record?
Answer: Its Potency is inconclusive: 89.1 µM [inhibitor, single point].

Question: `Clc1cccc(Cc2c(-c3ccccc3)nc3ccc(Cl)cn23)c1` was tested. Which Potency did it give?
Answer: Its Potency is inconclusive: 35.5 µM [inhibitor, single point].

Question: With `CCOc1cc(N2CCC(O)CC2)ccc1Nc1ncc2c(n1)N(C)c1ccccc1C(=O)N2C` as the molecule, how does the Potency read?
Answer: Its Potency is inconclusive: 4.47 µM [inhibitor, full curve, poor fit] and inconclusive: 385 nM [inhibitor, full curve].

Question: `S=C(Nc1ccc2[nH]ccc2c1)NC1CCCCC1` was tested. Which Potency did it give?
Answer: The Potency was inconclusive: 89.1 µM [inhibitor, partial curve, poor fit].

Question: For `O=C(CCS(=O)(=O)c1ccc2c(c1)CCN2C(=O)C1CC1)NC1CCCCCC1`, which Potency is on record?
Answer: The Potency was “inactive”.

Question: For `CCN(Cc1ccccc1)C(c1cc2cc(C)cc(C)c2[nH]c1=O)c1nnnn1CCOC` (configuration not stated), which Potency is on record?
Answer: Its Potency is “inactive”.

Question: Which Potency does the source give for `COc1ccccc1-c1noc2c1C(=O)N(Cc1cn(C3CCCC3)nn1)CC2` here?
Answer: The Potency was “inactive”.

Question: For `CC1CCN(CC(=O)Nc2ccc(S(=O)(=O)N3CCC(C)CC3)cc2)CC1`, which Potency is on record?
Answer: Its Potency is inconclusive: 1.12 µM [inhibitor, full curve, poor fit].

Question: Which Potency does the source give for `N#C/C(=C/c1cccc([N+](=O)[O-])c1)c1ccc(C(F)(F)F)cn1` here?
Answer: The Potency was inconclusive: 44.7 µM [inhibitor, full curve, poor fit].

Question: `CC(=O)Nc1cccc2cc(S(=O)(=O)O)ccc12` was tested. Which Potency did it give?
Answer: The Potency was “inactive”.

Question: How did the Potency turn out when `COC(=O)c1c(NC(=O)CC2SCC(C(=O)OC)NC2=O)sc2c1CCCC2` (configuration not stated) was run?
Answer: Its Potency is inconclusive: 1.26 µM [inhibitor, full curve, poor fit].

Question: Which Potency does the source give for `OC(c1ccc(Cl)cc1)c1nccc2ccccc12` (configuration not stated) here?
Answer: Its Potency is inconclusive: 10 µM [inhibitor, full curve].

Question: How did the Potency turn out when `COc1ccc(CNc2cc(-c3ccccc3CN(C)C)ncn2)c(OC)c1` was run?
Answer: The Potency was inconclusive: 50.1 µM [inhibitor, partial curve, poor fit].

Question: `O=C(O)CN1C(=O)/C(=C/c2ccc(N3CCCCC3)o2)SC1=S` was tested. Which Potency did it give?
Answer: The Potency was inconclusive: 50.1 µM [inhibitor, partial curve, poor fit].

Question: How did the Potency turn out when `Cc1ccc(N=C2NC(=O)/C(=C/C=C/c3ccco3)S2)cc1C` was run?
Answer: Its Potency is active: 10 µM.

Question: With `O=C(CSc1ncc(S(=O)(=O)c2ccc(Cl)cc2)c(=O)[nH]1)Nc1cccc(C(F)(F)F)c1` as the molecule, how does the Potency read?
Answer: Its Potency is inconclusive: 0.794 µM [inhibitor, full curve, poor fit].

Question: With `O=C(CSc1ccc2nnc(-c3ccc(Cl)cc3)n2n1)N1CCc2ccccc21` as the molecule, how does the Potency read?
Answer: Its Potency is inconclusive: 8.91 µM [inhibitor, partial curve, poor fit].

Question: `C=CCOc1ccc(NC(=O)C(=O)c2c(C)[nH]c3ccccc23)cc1` was tested. Which Potency did it give?
Answer: Its Potency is inconclusive: 44.7 µM [inhibitor, partial curve, poor fit].

Question: Which Potency does the source give for `CCOCC1(C)COc2ccc(C(=O)Nc3ccc(Cl)cc3)cc2N1` (configuration not stated) here?
Answer: The Potency was “inactive”.

Question: With `CC(C)c1ccc2oc(-c3ccc(N)cc3)nc2c1` as the molecule, how does the activity change, negative = inhibition read?
Answer: Its activity change, negative = inhibition is inconclusive: -30% [inhibitor].

Question: How did the Potency turn out when `Cc1cc(C)nc(NC(c2ccc(C(C)C)cc2)c2cc(C)sc2NC(=O)c2ccco2)n1` (configuration not stated) was run?
Answer: The Potency was inconclusive: 39.8 µM [inhibitor, partial curve, poor fit].

Question: For `CCOC(=O)c1c2c3c(cccc3n(C)c1=O)C(=O)c1ccccc1-2`, which Potency is on record?
Answer: The Potency was inconclusive: 1.78 µM [inhibitor, full curve, poor fit].

Question: Which Potency does the source give for `CCOC(=O)CN1CCC(c2cc(-c3ccc(Cl)cc3)n[nH]2)CC1` here?
Answer: Its Potency is inconclusive: 89.1 µM [inhibitor, partial curve, poor fit].

Question: `COc1ccc(/C=N/Nc2ccc([N+](=O)[O-])cc2)cc1O` was tested. Which Potency did it give?
Answer: The Potency was inconclusive: 5.62 µM [inhibitor, full curve, poor fit].

Question: Which Potency does the source give for `COc1cc(/C=C(\C#N)c2nc3ccc(C)cc3[nH]2)ccc1OC(C)=O` here?
Answer: Its Potency is inconclusive: 100 µM [inhibitor, partial curve, poor fit].

Question: For `COc1ccc(NC(=O)O[C@@H]2CO[C@H]3[C@@H]2OC[C@@H]3NC(=O)c2ccco2)cc1`, which Potency is on record?
Answer: Its Potency is inconclusive: 70.8 µM [inhibitor, partial curve, poor fit].

Question: For `COc1ccc2nc(N)sc2c1`, which Potency is on record?
Answer: Its Potency is “inactive”.

Question: How did the Potency turn out when `O=C1NC[C@H](CCCCN2CCN(CCC3CCCCC3)C(=O)C2=O)N(CC2CCCCC2)C1=O` was run?
Answer: The Potency was inconclusive: 112 µM [inhibitor, single point].
